{"source": "PubChem BioAssay AID504764 (Drosophila RNAi Screening Center, 2011)", "test": "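Genome-wide screen for regulators of Notch-driven gene expression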 (primary screen)", "cells": "Drosophila Kc167 cells", "knock-down reagent": "long dsRNA against Drosophila genes", "duration": "about 5 days (4 days dsRNA, then 24 h after transfection)", "conditions": "transfection of constitutively active membrane-tethered Notch lacking the extracellular domain, read 24 h later", "measured": "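Light from a Notch-responsive E(spl)m3 luciferase reporter under active Notch, with control-promoter and no-Notch reporter wells to normalise; raw counts from paired wells a and b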", "reading the numbers": "induced reporter light, run 1, well a and induced reporter light, run 1, well b: higher = more light from the Notch target reporter with active Notch; control promoter light, run 1, well a and control promoter light, run 1, well b: higher = more light from the viral control promoter (cell number, transfection, viability); uninduced reporter light, run 1, well a: higher = more light from the Notch target reporter without active Notch", "call rule": "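Hit if the duplicate-averaged log2 ratio of induced to control-promoter light gives a plate-wise z beyond ±2, or induced to uninduced beyond ±1.8; weak-control or discordant-duplicate wells dropped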", "meaning of the calls": "active = modifier hit (raised or lowered Notch signal); inactive = not a hit", "note": "The deposit covers about 22,000 reagents; this is a random part of those with a known target gene and a result. Over the whole deposit, 403 (1.9%) were called active. 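Unnormalised raw counts per well; ratio z-scores behind the hit calls and whether each hit raises or lowers signal are not deposited.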 The record does not give: the amount of reagent."}
The opening 2 records, to show the layout:
{"gene knocked down": "CG31510", "DRSC id": "DRSC14182", "induced reporter light, run 1, well a": 2.04e5, "induced reporter light, run 1, well b": 2.25e5, "control promoter light, run 1, well a": 2.04e5, "control promoter light, run 1, well b": 2.31e5, "uninduced reporter light, run 1, well a": 18160, "call": "inactive"}
{"gene knocked down": "dnt (doughnut on 2)", "DRSC id": "DRSC03522", "induced reporter light, run 1, well a": 1.79e5, "induced reporter light, run 1, well b": 1.83e5, "control promoter light, run 1, well a": 1.81e5, "control promoter light, run 1, well b": 1.94e5, "uninduced reporter light, run 1, well a": 13645, "call": "inactive"}

Main list, repeating the preview:
{"gene knocked down": "CG31510", "DRSC id": "DRSC14182", "induced reporter light, run 1, well a": 2.04e5, "induced reporter light, run 1, well b": 2.25e5, "control promoter light, run 1, well a": 2.04e5, "control promoter light, run 1, well b": 2.31e5, "uninduced reporter light, run 1, well a": 18160, "call": "inactive"}
{"gene knocked down": "dnt (doughnut on 2)", "DRSC id": "DRSC03522", "induced reporter light, run 1, well a": 1.79e5, "induced reporter light, run 1, well b": 1.83e5, "control promoter light, run 1, well a": 1.81e5, "control promoter light, run 1, well b": 1.94e5, "uninduced reporter light, run 1, well a": 13645, "call": "inactive"}
{"gene knocked down": "Gbeta13F (G protein beta subunit 13F)", "DRSC id": "DRSC20247", "induced reporter light, run 1, well a": 1.48e5, "induced reporter light, run 1, well b": 1.67e5, "control promoter light, run 1, well a": 2.39e5, "control promoter light, run 1, well b": 2.55e5, "uninduced reporter light, run 1, well a": 11750, "call": "inactive"}
{"gene knocked down": "VhaAC45RP (VhaAC45-related protein)", "DRSC id": "DRSC15423", "induced reporter light, run 1, well a": 1.85e5, "induced reporter light, run 1, well b": 1.87e5, "control promoter light, run 1, well a": 2.62e5, "control promoter light, run 1, well b": 2.14e5, "uninduced reporter light, run 1, well a": 10445, "call": "inactive"}
{"gene knocked down": "CG13527", "DRSC id": "DRSC04169", "induced reporter light, run 1, well a": 1.46e5, "induced reporter light, run 1, well b": 1.38e5, "control promoter light, run 1, well a": 1.68e5, "control promoter light, run 1, well b": 1.50e5, "uninduced reporter light, run 1, well a": 12005, "call": "inactive"}
{"gene knocked down": "Hs6st (Heparan sulfate 6-O-sulfotransferase)", "DRSC id": "DRSC14348", "induced reporter light, run 1, well a": 1.80e5, "induced reporter light, run 1, well b": 1.46e5, "control promoter light, run 1, well a": 1.65e5, "control promoter light, run 1, well b": 1.56e5, "uninduced reporter light, run 1, well a": 12395, "call": "inactive"}
{"gene knocked down": "Hs6st (Heparan sulfate 6-O-sulfotransferase)", "DRSC id": "DRSC15182", "induced reporter light, run 1, well a": 2.08e5, "induced reporter light, run 1, well b": 2.41e5, "control promoter light, run 1, well a": 2.27e5, "control promoter light, run 1, well b": 2.41e5, "uninduced reporter light, run 1, well a": 15460, "call": "inactive"}
{"gene knocked down": "Hs6st (Heparan sulfate 6-O-sulfotransferase)", "DRSC id": "DRSC15581", "induced reporter light, run 1, well a": 1.98e5, "induced reporter light, run 1, well b": 1.91e5, "control promoter light, run 1, well a": 2.08e5, "control promoter light, run 1, well b": 1.93e5, "uninduced reporter light, run 1, well a": 14285, "call": "inactive"}
{"gene knocked down": "CG32243", "DRSC id": "DRSC08105", "induced reporter light, run 1, well a": 2.20e5, "induced reporter light, run 1, well b": 1.87e5, "control promoter light, run 1, well a": 1.95e5, "control promoter light, run 1, well b": 1.97e5, "uninduced reporter light, run 1, well a": 13320, "call": "inactive"}
{"gene knocked down": "CG10651", "DRSC id": "DRSC02086", "induced reporter light, run 1, well a": 79205, "induced reporter light, run 1, well b": 40920, "control promoter light, run 1, well a": 44750, "control promoter light, run 1, well b": 76585, "uninduced reporter light, run 1, well a": 2610, "call": "inactive"}
{"gene knocked down": "mfr (misfire)", "DRSC id": "DRSC10543", "induced reporter light, run 1, well a": 2.32e5, "induced reporter light, run 1, well b": 1.95e5, "control promoter light, run 1, well a": 2.51e5, "control promoter light, run 1, well b": 2.60e5, "uninduced reporter light, run 1, well a": 11405, "call": "inactive"}
{"gene knocked down": "side-II (sidestep II)", "DRSC id": "DRSC01427", "induced reporter light, run 1, well a": 85705, "induced reporter light, run 1, well b": 1.04e5, "control promoter light, run 1, well a": 73595, "control promoter light, run 1, well b": 71370, "uninduced reporter light, run 1, well a": 9060, "call": "inactive"}
{"gene knocked down": "side-II (sidestep II)", "DRSC id": "DRSC01429", "induced reporter light, run 1, well a": 82880, "induced reporter light, run 1, well b": 64125, "control promoter light, run 1, well a": 73440, "control promoter light, run 1, well b": 74075, "uninduced reporter light, run 1, well a": 8415, "call": "inactive"}
{"gene knocked down": "side-II (sidestep II)", "DRSC id": "DRSC01913", "induced reporter light, run 1, well a": 1.10e5, "induced reporter light, run 1, well b": 1.14e5, "control promoter light, run 1, well a": 1.12e5, "control promoter light, run 1, well b": 1.37e5, "uninduced reporter light, run 1, well a": 8665, "call": "inactive"}
{"gene knocked down": "side-II (sidestep II)", "DRSC id": "DRSC01932", "induced reporter light, run 1, well a": 1.45e5, "induced reporter light, run 1, well b": 1.46e5, "control promoter light, run 1, well a": 1.55e5, "control promoter light, run 1, well b": 1.66e5, "uninduced reporter light, run 1, well a": 14375, "call": "inactive"}
{"gene knocked down": "side-II (sidestep II)", "DRSC id": "DRSC02480", "induced reporter light, run 1, well a": 1.43e5, "induced reporter light, run 1, well b": 1.32e5, "control promoter light, run 1, well a": 1.44e5, "control promoter light, run 1, well b": 1.52e5, "uninduced reporter light, run 1, well a": 12115, "call": "inactive"}
{"gene knocked down": "side-II (sidestep II)", "DRSC id": "DRSC22508", "call": "inactive"}
